{"sequences": {"note": "Sequences of proteins named here, by UniProt entry; tags and fusion partners are left off.", "UniProt P35249": "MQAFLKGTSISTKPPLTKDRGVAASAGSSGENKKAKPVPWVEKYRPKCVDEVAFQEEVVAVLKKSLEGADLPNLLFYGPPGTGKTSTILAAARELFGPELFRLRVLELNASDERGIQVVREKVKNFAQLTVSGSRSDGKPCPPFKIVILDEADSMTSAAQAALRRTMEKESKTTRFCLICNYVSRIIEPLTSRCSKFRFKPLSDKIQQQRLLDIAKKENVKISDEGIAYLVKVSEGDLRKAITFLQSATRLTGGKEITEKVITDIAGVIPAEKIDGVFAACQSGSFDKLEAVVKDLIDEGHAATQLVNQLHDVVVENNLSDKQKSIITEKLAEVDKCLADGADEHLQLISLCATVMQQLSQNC", "UniProt P52701": "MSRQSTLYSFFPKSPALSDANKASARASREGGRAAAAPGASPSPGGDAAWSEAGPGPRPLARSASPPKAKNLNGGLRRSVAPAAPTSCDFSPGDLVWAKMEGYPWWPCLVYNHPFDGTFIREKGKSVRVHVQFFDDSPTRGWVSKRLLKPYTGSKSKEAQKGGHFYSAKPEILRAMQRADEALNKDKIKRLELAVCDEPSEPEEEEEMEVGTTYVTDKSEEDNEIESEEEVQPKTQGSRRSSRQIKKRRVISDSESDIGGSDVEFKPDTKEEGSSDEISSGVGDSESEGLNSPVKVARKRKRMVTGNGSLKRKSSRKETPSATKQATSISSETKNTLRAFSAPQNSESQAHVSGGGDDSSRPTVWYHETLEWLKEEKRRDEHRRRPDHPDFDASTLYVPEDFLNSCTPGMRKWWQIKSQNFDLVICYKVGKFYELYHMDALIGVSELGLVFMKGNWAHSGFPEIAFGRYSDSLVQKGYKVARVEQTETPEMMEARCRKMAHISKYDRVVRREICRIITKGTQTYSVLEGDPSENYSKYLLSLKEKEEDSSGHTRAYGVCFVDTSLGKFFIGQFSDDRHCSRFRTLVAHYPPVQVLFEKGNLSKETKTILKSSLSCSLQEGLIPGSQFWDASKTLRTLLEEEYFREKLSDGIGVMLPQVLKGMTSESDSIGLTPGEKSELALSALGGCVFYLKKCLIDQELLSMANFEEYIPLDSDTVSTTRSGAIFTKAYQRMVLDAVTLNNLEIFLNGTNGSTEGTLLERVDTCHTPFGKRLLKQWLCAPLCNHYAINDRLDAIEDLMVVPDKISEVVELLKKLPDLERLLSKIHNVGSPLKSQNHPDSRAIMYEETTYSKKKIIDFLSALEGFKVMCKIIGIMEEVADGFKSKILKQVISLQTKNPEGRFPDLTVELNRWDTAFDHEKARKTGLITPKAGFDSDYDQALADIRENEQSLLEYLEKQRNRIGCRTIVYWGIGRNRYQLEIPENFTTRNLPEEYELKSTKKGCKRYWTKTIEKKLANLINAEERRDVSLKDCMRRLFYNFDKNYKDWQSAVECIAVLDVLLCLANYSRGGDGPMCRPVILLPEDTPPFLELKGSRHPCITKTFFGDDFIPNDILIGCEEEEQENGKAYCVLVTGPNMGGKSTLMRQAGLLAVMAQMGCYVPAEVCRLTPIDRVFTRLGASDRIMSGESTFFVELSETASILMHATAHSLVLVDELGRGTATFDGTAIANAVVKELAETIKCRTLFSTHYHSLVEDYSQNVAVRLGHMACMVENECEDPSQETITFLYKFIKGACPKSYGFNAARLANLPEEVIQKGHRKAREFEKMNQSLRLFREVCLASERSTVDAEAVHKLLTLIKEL", "UniProt P40937": "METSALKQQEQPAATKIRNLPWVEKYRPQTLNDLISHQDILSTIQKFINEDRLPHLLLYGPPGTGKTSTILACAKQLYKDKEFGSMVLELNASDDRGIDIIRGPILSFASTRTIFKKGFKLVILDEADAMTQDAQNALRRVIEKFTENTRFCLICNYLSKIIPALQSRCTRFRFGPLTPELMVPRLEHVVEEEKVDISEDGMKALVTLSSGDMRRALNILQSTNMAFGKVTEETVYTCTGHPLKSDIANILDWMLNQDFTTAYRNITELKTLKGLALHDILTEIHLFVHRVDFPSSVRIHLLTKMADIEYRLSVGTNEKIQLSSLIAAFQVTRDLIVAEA", "UniProt P28340": "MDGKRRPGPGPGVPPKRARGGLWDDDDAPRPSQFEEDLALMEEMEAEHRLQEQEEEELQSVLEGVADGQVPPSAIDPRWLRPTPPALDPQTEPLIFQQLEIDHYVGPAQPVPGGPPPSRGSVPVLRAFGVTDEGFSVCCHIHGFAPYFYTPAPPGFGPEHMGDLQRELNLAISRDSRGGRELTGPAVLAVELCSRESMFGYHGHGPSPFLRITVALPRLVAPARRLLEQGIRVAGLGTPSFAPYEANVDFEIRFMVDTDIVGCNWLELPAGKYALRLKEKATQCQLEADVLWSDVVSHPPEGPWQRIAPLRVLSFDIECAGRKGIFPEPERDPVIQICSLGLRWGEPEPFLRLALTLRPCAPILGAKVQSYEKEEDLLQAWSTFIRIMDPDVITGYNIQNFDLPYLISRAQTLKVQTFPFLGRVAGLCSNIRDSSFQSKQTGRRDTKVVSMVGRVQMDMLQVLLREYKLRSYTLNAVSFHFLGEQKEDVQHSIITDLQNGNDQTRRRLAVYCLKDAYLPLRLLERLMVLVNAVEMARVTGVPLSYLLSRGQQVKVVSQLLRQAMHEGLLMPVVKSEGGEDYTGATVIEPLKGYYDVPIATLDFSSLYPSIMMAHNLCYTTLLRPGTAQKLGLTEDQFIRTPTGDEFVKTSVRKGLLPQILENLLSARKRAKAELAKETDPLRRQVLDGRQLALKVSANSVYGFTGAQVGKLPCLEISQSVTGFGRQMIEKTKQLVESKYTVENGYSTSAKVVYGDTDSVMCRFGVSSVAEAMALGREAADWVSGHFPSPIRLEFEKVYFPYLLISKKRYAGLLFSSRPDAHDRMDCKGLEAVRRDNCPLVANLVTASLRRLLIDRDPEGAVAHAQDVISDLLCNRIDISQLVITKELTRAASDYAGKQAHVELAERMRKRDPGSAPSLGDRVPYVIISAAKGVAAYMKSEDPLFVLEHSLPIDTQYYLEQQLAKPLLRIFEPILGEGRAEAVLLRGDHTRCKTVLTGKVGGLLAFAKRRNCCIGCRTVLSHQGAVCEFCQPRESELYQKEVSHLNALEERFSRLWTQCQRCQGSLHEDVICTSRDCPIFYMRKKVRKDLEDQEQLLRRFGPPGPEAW", "UniProt P20700": "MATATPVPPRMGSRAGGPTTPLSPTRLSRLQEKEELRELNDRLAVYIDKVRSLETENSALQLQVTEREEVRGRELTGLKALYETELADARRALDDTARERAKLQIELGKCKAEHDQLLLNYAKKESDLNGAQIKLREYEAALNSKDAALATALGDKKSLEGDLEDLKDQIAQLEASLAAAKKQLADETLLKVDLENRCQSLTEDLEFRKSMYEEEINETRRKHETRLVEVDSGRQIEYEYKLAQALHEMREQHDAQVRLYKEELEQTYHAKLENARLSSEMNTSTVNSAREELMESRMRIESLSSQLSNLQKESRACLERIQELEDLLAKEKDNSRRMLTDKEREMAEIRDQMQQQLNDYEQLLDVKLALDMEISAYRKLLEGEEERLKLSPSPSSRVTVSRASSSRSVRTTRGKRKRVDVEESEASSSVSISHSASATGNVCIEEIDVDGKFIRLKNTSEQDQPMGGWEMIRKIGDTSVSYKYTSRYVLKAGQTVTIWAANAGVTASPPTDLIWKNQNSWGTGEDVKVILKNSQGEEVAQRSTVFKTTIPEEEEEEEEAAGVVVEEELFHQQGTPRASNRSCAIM", "UniProt O75367": "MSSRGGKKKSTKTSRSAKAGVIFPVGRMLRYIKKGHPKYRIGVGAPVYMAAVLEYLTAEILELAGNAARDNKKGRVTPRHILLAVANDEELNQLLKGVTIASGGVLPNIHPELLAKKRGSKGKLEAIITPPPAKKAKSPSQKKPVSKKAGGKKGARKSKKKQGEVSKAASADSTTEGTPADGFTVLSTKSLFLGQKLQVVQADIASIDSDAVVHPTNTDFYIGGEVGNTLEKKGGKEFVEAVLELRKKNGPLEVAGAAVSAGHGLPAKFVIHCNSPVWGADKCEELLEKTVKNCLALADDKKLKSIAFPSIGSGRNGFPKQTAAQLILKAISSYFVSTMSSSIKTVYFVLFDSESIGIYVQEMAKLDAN"}, "source": "paper PMC7312997", "molecules": {"B1": {"name": "thymidine kinase 1 (TK1) (enzyme, UniProt P04183 1-234)", "chain": "MSCINLPTVLPGSPSKTRGQIQVILGPMFSGKSTELMRRVRRFQIAQYKCLVIKYAKDTRYSSSFCTHDRNTMEALPACLLRDVAQEALGVAVIGIDEGQFFPDIVEFCEAMANAGKTVIVAALDGTFQRKPFGAILNLVPLAESVVKLTAVCMECFREAAYTKRLGTEKEVEVIGGADKYHSVCRLCYFKKASGQPAGPDNKENCPVPGKPGEAVAARKLFAPQQILQCSPAN"}, "B2": {"name": "DNA helicase HELLS (enzyme, UniProt Q9NRZ9 1-838)", "chain": "MPAERPAGSGGSEAPAMVEQLDTAVITPAMLEEEEQLEAAGLERERKMLEKARMSWDRESTEIRYRRLQHLLEKSNIYSKFLLTKMEQQQLEEQKKKEKLERKKESLKVKKGKNSIDASEEKPVMRKKRGREDESYNISEVMSKEEILSVAKKNKKENEDENSSSTNLCVEDLQKNKDSNSIIKDRLSETVRQNTKFFFDPVRKCNGQPVPFQQPKHFTGGVMRWYQVEGMEWLRMLWENGINGILADEMGLGKTVQCIATIALMIQRGVPGPFLVCGPLSTLPNWMAEFKRFTPDIPTMLYHGTQEERQKLVRNIYKRKGTLQIHPVVITSFEIAMRDRNALQHCYWKYLIVDEGHRIKNMKCRLIRELKRFNADNKLLLTGTPLQNNLSELWSLLNFLLPDVFDDLKSFESWFDITSLSETAEDIIAKEREQNVLHMLHQILTPFLLRRLKSDVALEVPPKREVVVYAPLSKKQEIFYTAIVNRTIANMFGSSEKETIELSPTGRPKRRTRKSINYSKIDDFPNELEKLISQIQPEVDRERAVVEVNIPVESEVNLKLQNIMMLLRKCCNHPYLIEYPIDPVTQEFKIDEELVTNSGKFLILDRMLPELKKRGHKVLLFSQMTSMLDILMDYCHLRDFNFSRLDGSMSYSEREKNMHSFNTDPEVFIFLVSTRAGGLGINLTAADTVIIYDSDWNPQSDLQAQDRCHRIGQTKPVVVYRLVTANTIDQKIVERAAAKRKLEKLIIHKNHFKGGQSGLNLSKNFLDPKELMELLKSRDYEREIKGSREKVISDKDLELLLDRSDLIDQMNASGPIKEKMGIFKILENSEDSSPECLF"}, "B3": {"name": "BRCA1-associated ATM activator 1 (BRAT1) (protein, UniProt Q6PJG6 1-821)", "chain": "MDPECAQLLPALCAVLVDPRQPVADDTCLEKLLDWFKTVTEGESSVVLLQEHPCLVELLSHVLKVQDLSSGVLSFSLRLAGTFAAQENCFQYLQQGELLPGLFGEPGPLGRATWAVPTVRSGWIQGLRSLAQHPSALRFLADHGAVDTIFSLQGDSSLFVASAASQLLVHVLALSMRGGAEGQPCLPGGDWPACAQKIMDHVEESLCSAATPKVTQALNVLTTTFGRCQSPWTEALWVRLSPRVACLLERDPIPAAHSFVDLLLCVARSPVFSSSDGSLWETVARALSCLGPTHMGPLALGILKLEHCPQALRTQAFQVLLQPLACVLKATVQAPGPPGLLDGTADDATTVDTLLASKSSCAGLLCRTLAHLEELQPLPQRPSPWPQASLLGATVTVLRLCDGSAAPASSVGGHLCGTLAGCVRVQRAALDFLGTLSQGTGPQELVTQALAVLLECLESPGSSPTVLKKAFQATLRWLLSSPKTPGCSDLGPLIPQFLRELFPVLQKRLCHPCWEVRDSALEFLTQLSRHWGGQADFRCALLASEVPQLALQLLQDPESYVRASAVTAMGQLSSQGLHAPTSPEHAEARQSLFLELLHILSVDSEGFPRRAVMQVFTEWLRDGHADAAQDTEQFVATVLQAASRDLDWEVRAQGLELALVFLGQTLGPPRTHCPYAVALPEVAPAQPLTEALRALCHVGLFDFAFCALFDCDRPVAQKSCDLLLFLRDKIASYSSLREARGSPNTASAEATLPRWRAGEQAQPPGDQEPEAVLAMLRSLDLEGLRSTLAESSDHVEKSPQSLLQDMLATGGFLQGDEADCY"}}, "note": "No constants are given. Whether binding was seen depends on the method and setting. Binding seen in cells or lysates may run through a third protein. These calls come from enrichment with a bait or labelling near it, and not all partners need be listed. Sequences can lack the tags named with a protein.", "data": [{"molecular_target": "T1, MYSM1-Flag (Myb-like Swirm and MPN domain containing 1, 2A-DUB/MYSM1) (UniProt Q5VVJ2)", "T1 sequence": "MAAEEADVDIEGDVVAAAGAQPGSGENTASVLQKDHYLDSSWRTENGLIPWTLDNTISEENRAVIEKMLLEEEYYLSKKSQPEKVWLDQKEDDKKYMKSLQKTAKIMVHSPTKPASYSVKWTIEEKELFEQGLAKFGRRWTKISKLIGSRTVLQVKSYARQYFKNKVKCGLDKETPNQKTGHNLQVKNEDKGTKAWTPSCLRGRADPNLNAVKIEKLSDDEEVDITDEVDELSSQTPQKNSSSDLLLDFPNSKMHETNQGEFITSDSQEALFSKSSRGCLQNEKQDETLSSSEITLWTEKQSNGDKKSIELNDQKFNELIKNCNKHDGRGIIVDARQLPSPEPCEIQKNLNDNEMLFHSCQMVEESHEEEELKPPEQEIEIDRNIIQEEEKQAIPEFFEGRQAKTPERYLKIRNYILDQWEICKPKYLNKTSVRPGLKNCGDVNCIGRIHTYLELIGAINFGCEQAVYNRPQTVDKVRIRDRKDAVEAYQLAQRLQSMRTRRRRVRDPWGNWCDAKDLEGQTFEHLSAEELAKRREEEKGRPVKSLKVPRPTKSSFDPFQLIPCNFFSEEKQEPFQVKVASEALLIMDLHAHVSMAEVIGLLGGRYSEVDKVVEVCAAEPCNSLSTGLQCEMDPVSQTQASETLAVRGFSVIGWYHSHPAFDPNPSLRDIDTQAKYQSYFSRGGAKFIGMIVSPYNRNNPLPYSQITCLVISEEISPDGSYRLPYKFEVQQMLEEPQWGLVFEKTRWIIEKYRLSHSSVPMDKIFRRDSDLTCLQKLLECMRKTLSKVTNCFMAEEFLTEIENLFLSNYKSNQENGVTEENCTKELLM", "assay": "affinity purification with mass spectrometry; anti-Flag (vs. control IgG) co-IP from RIPA lysates of 293T cells transiently expressing MYSM1-Flag (control GFP-Flag), treated with etoposide or DMSO for the last 6 h; eluates fractionated by SDS-PAGE, trypsin digest, SCX-HPLC-MS/MS (Orbitrap Velos Pro), label-free quantification with MaxQuant", "values": [{"molecule": "replication factor C (RFC) 4 (from UniProt P35249 1-363)", "binding": "binds"}, {"molecule": "MSH6 (from UniProt P52701 1-1360)", "binding": "binds weakly"}, {"molecule": "replication factor C subunit RFC5 (from UniProt P40937 1-340)", "binding": "binds"}, {"molecule": "POLD1 (from UniProt P28340 1-1107) (enzyme)", "binding": "binds weakly"}, {"molecule": "Lamin B1 (from UniProt P20700 1-586)", "binding": "binds weakly"}, {"molecule": "macroH2A.1 (from UniProt O75367 1-369)", "binding": "binds"}]}, {"molecular_target": "T1, MYSM1-Flag (Myb-like Swirm and MPN domain containing 1, 2A-DUB/MYSM1)", "assay": "affinity purification with mass spectrometry; anti-Flag (vs. control IgG) co-IP from RIPA lysates of 293T cells transiently expressing MYSM1-Flag (control GFP-Flag), treated with etoposide or DMSO for the last 6 h; eluates fractionated by SDS-PAGE, trypsin digest, SCX-HPLC-MS/MS (Orbitrap Velos Pro), label-free quantification with MaxQuant", "remark": "another data set of the same source", "values": [{"molecule": "B1", "binding": "binds"}, {"molecule": "B2", "binding": "binds"}, {"molecule": "B3", "binding": "binds"}]}]}
